Measured values from PubChem BioAssay AID1671190 (National Center for Advancing Translational Sciences (NCATS), 2021).
The whole screen tested about 580,000 compounds, of which about 6,100 (1.1%) were called active. Inconclusive results, whose numbers are uncertain, are shown with a selection of clear calls. Calls come from the whole dose curve; as a rule, active = well fitted inhibition curve with a large enough effect; inconclusive = small, poorly fitted or top-dose-only effect, or another doubt; inactive = no such curve, though single readings can be large or run the other way. Where the call is inconclusive, the potency comes from a doubtful curve fit.
% is set by controls: 0 for no effect and ±100 for the full control effect; potency is the fitted concentration of half-maximal effect.

The chains behind the UniProt entries cited, without tags or fusion partners. Where a name states a change or a piece, a line headed by the entry shows the natural chain unless it says otherwise.
UniProt P18054: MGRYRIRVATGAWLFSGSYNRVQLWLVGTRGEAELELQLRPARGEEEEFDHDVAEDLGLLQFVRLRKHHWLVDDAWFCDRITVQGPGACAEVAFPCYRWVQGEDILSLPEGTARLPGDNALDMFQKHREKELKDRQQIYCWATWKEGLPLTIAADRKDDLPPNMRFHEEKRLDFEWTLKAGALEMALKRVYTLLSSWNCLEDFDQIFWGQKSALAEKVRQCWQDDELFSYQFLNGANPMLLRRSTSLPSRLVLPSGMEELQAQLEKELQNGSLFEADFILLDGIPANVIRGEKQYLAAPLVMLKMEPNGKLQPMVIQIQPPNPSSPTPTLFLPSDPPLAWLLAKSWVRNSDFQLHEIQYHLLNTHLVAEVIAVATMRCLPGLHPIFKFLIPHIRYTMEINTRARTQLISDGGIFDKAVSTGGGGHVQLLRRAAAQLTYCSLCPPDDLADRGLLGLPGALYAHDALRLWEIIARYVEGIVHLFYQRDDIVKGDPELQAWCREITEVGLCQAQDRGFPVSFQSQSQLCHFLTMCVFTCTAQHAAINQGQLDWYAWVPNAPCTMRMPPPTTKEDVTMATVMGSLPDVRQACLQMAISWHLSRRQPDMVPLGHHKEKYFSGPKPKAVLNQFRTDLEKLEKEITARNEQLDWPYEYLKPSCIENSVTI

What follows are compounds tested against Polyunsaturated fatty acid lipoxygenase ALOX12 (Homo sapiens) (UniProt P18054) (assay: Primary qHTS assay for inhibitors of human arachidonate 12S-lipoxygenase (ALOX12): Round 2). Settings: purified 12hLO, xylenol orange hydroperoxide absorbance; activity change, negative = inhibition: at 108 µM (top of the series) unless noted.
Outline: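 Hydroperoxide product was detected by ferrous iron/xylenol orange as the 573 to 405 nm absorbance ratio. Arachidonic acid at 40 uM (final) was turned over for 30 min at room temperature by 150 nM human 12hLO, pH 7.0 Hepes buffer, after 15 min compound preincubation.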
With `CCOC(=O)c1c(C)sc2c1OC(N)=C(C#N)C21C(=O)N(Cc2ccccc2F)c2ccccc21` (configuration not stated) the Potency was inconclusive: 22.4 µM [inhibitor, partial curve, poor fit].
With `Cn1nc(C(C)(C)C)cc1C(=O)O` the Potency was “inactive”.
With `O=C(N/N=C/c1cccc(Cl)c1Cl)Nc1ccccc1` the Potency was “inactive”.
`CCN(CC)CCn1c(=O)n(-c2ccc(Cl)cc2)c(=O)c2c3c(sc21)CN(C)CC3` was tested, and the Potency was inconclusive: 25.1 µM [inhibitor, single point].
For `O=C(COc1ccc(-c2ccccc2)cc1)N1CCCC1`, the Potency was “inactive”.
With `CCOc1ccc(NC(=O)CC2C(=O)N(c3ccccc3)C(=O)N2CCc2cccs2)cc1` (configuration not stated) the Potency was inconclusive: 56.2 µM [inhibitor, partial curve, poor fit].
With `c1ccc(-c2nc(C3CC3)no2)c(OC2CN(Cc3ccncc3)C2)c1` the Potency was “inactive”.
`O=C(CCc1cc(Cl)no1)N(CCS(=O)(=O)N1CCCCC1)Cc1cccnc1` was tested, and the Potency was inconclusive: 1.26 µM [inhibitor, full curve].
`O=C(CCCN1C(=O)/C(=C/c2ccccc2Cl)SC1=S)NNC(=O)c1ccc(Cl)cc1Cl` was tested, and the Potency was “inactive”.
For `Nc1[nH]n2c(=O)cc(-c3ccccc3)nc2c1N=Nc1ccccc1`, the Potency was inconclusive: 5.62 µM [inhibitor, partial curve, poor fit].
For `Fc1ccc(NC(=S)Nc2cccnc2)c(Cl)c1`, the Potency was inconclusive: 100 µM [inhibitor, single point].
In the case of `Cc1ccc(CNC(=O)C2CCN(c3nc4c(C)cc(C)cc4s3)CC2)cc1`, the Potency is reported as “inactive”.
For `OCc1nnn(-c2cccc(C(F)(F)F)c2)c1CO`, the Potency was “inactive”.
For `Cc1nc(C2CCCCN2)n[nH]1` (configuration not stated), the Potency was inconclusive: 2.82 µM [inhibitor, full curve, poor fit].
With `CCCCN(CCCC)CCCNC(=O)CN1C(=O)COc2ccc(S(=O)(=O)N3CCC(C)CC3)cc21` the activity change, negative = inhibition was inconclusive: -34.9% [inhibitor].
In the case of `CNCc1cccs1`, the Potency is reported as inconclusive: 158 µM [inhibitor, partial curve, poor fit].
`c1ccc(-c2ccc3c(c2)NC(C2Nc4cc(-c5ccccc5)ccc4O2)O3)cc1` (configuration not stated) was tested, and the Potency was inconclusive: 0.631 µM [inhibitor, partial curve, poor fit].
With `O=C(CC1CCCN(c2cnn(CC3CC3)c(=O)c2)C1)Nc1ccccc1F` (configuration not stated) the Potency was inconclusive: 8.91 µM [inhibitor, partial curve, poor fit].
`Cc1cc(C)n(Cc2cc(C(=O)O)c3ccccc3n2)n1` was tested, and the Potency was inconclusive: 35.5 µM [inhibitor, partial curve, poor fit].
For `CCOc1ccccc1NC(=O)Cn1ccn2nc(-c3ccccc3)c(CO)c2c1=O`, the Potency was “inactive”.
For `Oc1ccc(Cl)cc1C=NCc1ccc(Cl)cc1`, the Potency was inconclusive: 31.6 µM [inhibitor, single point].
`Cc1sc(NC(=O)c2ccco2)c(C(c2cccnc2)N2CCN(c3ccc(F)cc3)CC2)c1C` (configuration not stated) was tested, and the Potency was inconclusive: 141 µM [inhibitor, single point].
`CCc1cccc(NC(=S)N2CCC(c3ccccc3)C2)c1` (configuration not stated) was tested, and the Potency was inconclusive: 44.7 µM [inhibitor, partial curve, poor fit].
For `CN1CCN(c2ncc3nc(-c4cn(C)c5ccccc45)c(=O)n(C)c3n2)CC1`, the Potency was inconclusive: 5.01 µM [inhibitor, full curve, poor fit].
`CC(C)Oc1ccccc1/C=C(/C#N)C(=O)Nc1cccc(C(F)(F)F)c1` was tested, and the Potency was inconclusive: 89.1 µM [inhibitor, single point].
`CC(Cc1c[nH]c2ccccc12)C(=O)Nc1ccc(F)cc1` (configuration not stated) was tested, and the Potency was inconclusive: 35.5 µM [inhibitor, partial curve].
`COc1ccc(NC(=O)c2c(SC)nsc2SC)cc1` was tested, and the Potency was inconclusive: 50.1 µM [inhibitor, partial curve, poor fit].
`CC1Sc2ccc(C(=O)N3CCCC(C(F)(F)F)C3)cc2NC1=O` (configuration not stated) was tested, and the Potency was “inactive”.
For `Cc1ccc(C)c(NC(=S)NCCSc2ccc(Cl)cc2)c1`, the Potency was active: 28.2 µM.
In the case of `O=C(CCCc1ccccc1)N1CCC2(CC1)CC(N(Cc1ccccc1)C1CC1)CCO2` (configuration not stated), the Potency is reported as “inactive”.
In the case of `O=[N+]([O-])c1ccc(Cl)c2ncccc12`, the Potency is reported as inconclusive: 10 µM [inhibitor, full curve, poor fit].
`CCOC(=O)c1cc2c(=O)n3ccccc3nc2n(CC(C)C)c1=NC(=O)COc1ccc(Cl)cc1` was tested, and the Potency was “inactive”.
With `CC[C@H]1CN(C(=O)C(C)(C)C)CC[C@H]1CC(=O)N1CCC(C(=O)OC)CC1` the Potency was “inactive”.
With `CC1CCc2nc3ccc(S(=O)(=O)N4CCC(C(=O)N5CCCCC5)CC4)cc3c(C(=O)O)c2C1` (configuration not stated) the Potency was inconclusive: 39.8 µM [inhibitor, partial curve].
With `Cc1cc(=O)[nH]c(SCC(=O)Nc2cccc(C(F)(F)F)c2)n1` the Potency was inconclusive: 89.1 µM [inhibitor, single point].
For `COc1cccc(C(=O)N2CCC(c3n[nH]c(=O)n3-c3ccc(C)cc3)CC2)c1OC`, the Potency was inconclusive: 10 µM [inhibitor, full curve, poor fit].
`CCOC(=O)CCCNC(=O)COC(=O)c1cc(-c2cccs2)nc2ccccc12` was tested, and the Potency was “inactive”.
`CCC(CC)NC(=O)COC(=O)c1cc(-c2ccc(C)o2)nc2ccccc12` was tested, and the Potency was inconclusive: 7.08 µM [inhibitor, full curve].
In the case of `CCN1C(=O)[C@@H]2[C@@H](c3ccc(-c4ccc(OC)cc4)c(OC)c3)N3CCC[C@@]3(C(=O)OC)[C@@H]2C1=O`, the Potency is reported as “inactive”.
With `COc1ccccc1C1=NOC(Cn2c(NCCCO)nc3c2c(=O)n(C)c(=O)n3C)C1` (configuration not stated) the Potency was inconclusive: 44.7 µM [inhibitor, partial curve, poor fit].
With `C[C@H](CO)N1C[C@H](C)[C@H](CN(C)C(=O)c2ccccn2)Oc2cc(C#Cc3ccc(F)cc3)ccc2S1(=O)=O` the Potency was inconclusive: 39.8 µM [inhibitor, partial curve].
With `O=C1CC(Cc2ccccc2)C(=O)N1CCc1ccc2c(c1)OCO2` (configuration not stated) the Potency was “inactive”.
In the case of `O=C(O)c1ccccc1Nc1ccccc1C(=O)O`, the Potency is reported as “inactive”.
In the case of `CCOc1ccccc1N1CCN(C(=O)CSc2ccc3c(c2)OCCO3)CC1`, the Potency is reported as inconclusive: 89.1 µM [inhibitor, single point].
`CCN(CC)CCn1c2c(c(SCC(=O)Nc3ccc(C)c(F)c3)nc1=O)CCC2` was tested, and the Potency was inconclusive: 100 µM [inhibitor, single point].
In the case of `Cc1ccc(S(=O)(=O)N/N=C/c2cccc3nccnc23)cc1`, the Potency is reported as inconclusive: 44.7 µM [inhibitor, partial curve, poor fit].
With `COc1cc(/C=C2\C(=O)ON=C2c2ccccc2)cc(Cl)c1O` the Potency was inconclusive: 22.4 µM [inhibitor, partial curve, poor fit].
For `Cc1ccc(-c2cnc(CCC(=O)Nc3ccccc3O)o2)cc1C`, the Potency was inconclusive: 100 µM [inhibitor, single point].
In the case of `C[C@H](CO)N1C[C@H](C)[C@@H](CN(C)Cc2ccncc2)Oc2c(NS(=O)(=O)c3cn(C)cn3)cccc2C1=O`, the Potency is reported as inconclusive: 44.7 µM [inhibitor, single point].
`CC(C)(C)C1=CC(CC(N)=O)(C(C)(C)C)OC1=O` (configuration not stated) was tested, and the Potency was inconclusive: 112 µM [inhibitor, single point].
With `CCCN1CCN(CCO)CC1` the Potency was “inactive”.
For `O=C(O)c1ccc(-c2nc(-c3ccc(Cl)cc3)cs2)cc1`, the Potency was inconclusive: 56.2 µM [inhibitor, partial curve, poor fit].
In the case of `CCCc1ccc(C(=O)[C@@H]2[C@@H](C(C)=O)N3c4ccc(F)cc4C=C[C@@H]3[C@@]23C(=O)Nc2ccccc23)cc1`, the Potency is reported as inconclusive: 35.5 µM [inhibitor, partial curve, poor fit].
For `CO[C@@H]1CCOC[C@H]1NS(=O)(=O)c1ccc(S(C)(=O)=O)cc1`, the Potency was “inactive”.
In the case of `COc1ccccc1Cc1c(C(C)(C)C)nc2c(C)cc(Br)cn12`, the Potency is reported as inconclusive: 89.1 µM [inhibitor, partial curve, poor fit].
`O=C1Nc2ccccc2SC(c2ccccc2)C1O` (configuration not stated) was tested, and the Potency was active: 12.6 µM.
In the case of `COc1ccc(CNC(=O)CSc2nc(SC)ns2)cc1`, the Potency is reported as inconclusive: 89.1 µM [inhibitor, single point].
`CN(CCC1CCOCC1)C(=O)CC1C(=O)NCCN1Cc1ccccc1F` (configuration not stated) was tested, and the Potency was inconclusive: 39.8 µM [inhibitor, partial curve, poor fit].
In the case of `COc1ccccc1NC(=O)CSc1nc(O)c(C/C=C/c2ccccc2)c(=O)[nH]1`, the Potency is reported as inconclusive: 56.2 µM [inhibitor, partial curve, poor fit].
`O=C1N=C(N2CCCCC2)S/C1=C\c1ccc(Cl)cc1` was tested, and the Potency was inconclusive: 126 µM [inhibitor, single point].
`COc1cc2c(OC)cccc2cc1C(=O)O` was tested, and the Potency was “inactive”.
In the case of `CC1(C)CC(N2CCCC2)=CC(=[N+]2CCCCCC2)C1`, the Potency is reported as inconclusive: 50.1 µM [inhibitor, partial curve, poor fit].
In the case of `O=C(C[C@H]1NC(=O)c2ccccc2NC1=O)Nc1nc(-c2ccc3c(c2)OCO3)cs1`, the Potency is reported as “inactive”.
With `COc1cccc(CNC(=O)c2cccnc2Sc2ccccc2)c1` the Potency was inconclusive: 112 µM [inhibitor, single point].
`O=C(c1ccc2c(c1)OCO2)N1CCn2c(nnc2-c2ccccc2)C1` was tested, and the Potency was inconclusive: 31.6 µM [inhibitor, partial curve, poor fit].
`COCc1ccccc1C1=CC(=O)C[C@H](c2ccc(OC)cc2)C1` was tested, and the Potency was inconclusive: 39.8 µM [inhibitor, partial curve, poor fit].
`COc1ccc(-c2cc(C(F)(F)F)n3nc(C(=O)N4CCN(C(=O)c5ccco5)CC4)cc3n2)cc1` was tested, and the Potency was “inactive”.
